Test results: publication PMC11306256

The chains behind the UniProt entries cited, without tags or fusion partners. Where a name states a change or a piece, a line headed by the entry shows the natural chain unless it says otherwise.
UniProt Q6IP62: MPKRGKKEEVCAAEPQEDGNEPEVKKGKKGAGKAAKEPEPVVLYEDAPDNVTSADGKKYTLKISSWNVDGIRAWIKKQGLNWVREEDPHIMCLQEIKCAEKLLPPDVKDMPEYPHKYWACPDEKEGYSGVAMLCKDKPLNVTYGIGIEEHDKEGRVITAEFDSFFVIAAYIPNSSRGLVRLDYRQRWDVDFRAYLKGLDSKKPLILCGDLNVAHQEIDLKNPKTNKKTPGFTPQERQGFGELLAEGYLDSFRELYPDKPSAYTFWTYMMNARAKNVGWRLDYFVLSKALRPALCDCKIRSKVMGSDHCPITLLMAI

Columns and labels:
[1] = target: GST-APE1-ΔNT34 (Xenopus APE1 lacking the N-terminal 34 amino acids) (Xenopus laevis); assay: pull-down; 10 μg GST or GST-tagged protein added to 50 μL HSS diluted with 150 μL Interaction buffer (100 mM NaCl, 5 mM MgCl2, 10% glycerol, 0.1% Nonidet P-40, 20 mM Tris-HCl pH 8.0), 4 °C; glutathione beads; immunoblotting of bead-bound fraction; only the target purified
[2] = target: GST-tagged recombinant Xenopus APE1, wild type (Xenopus laevis) (UniProt Q6IP62); assay: as above

binding [2]: binds
B1: endogenous Xenopus Mre11 (protein, UniProt Q9W6K1 1-711)
chain: MSSSSSSLDDEDTFKILVATDIHLGFMEKDAVRGNDSFVAFDEILRLAQDNEVDFLLLGGDLFHDNKPSRRTLHICLEQLRKYCMGDRPIEFEVLSDQSVNFGYSKFPWVNYQDNNLNISLPVFSVHGNHDDPTGADALCALDILSSAGLVNHFGRATSVEKIDISPVLLQKGHSKIALYGLGSIPDERLYRMFVNKQVMMLRPREDESSWFNLFVIHQNRSKHGPTNYIPEQFLDEFLDLVIWGHEHECKIAPTRNEQQLFYVSQPGSSVATSLSPGEAEKKHVGLLRIKGKKMNMQKIPLQTVRQFFIEDLVLSDYPDIFNPDNPRVTQEIETFCIEKVEAMLDTAERERLGNPRQPDKPLIRLRVDYTGGFEPFNTLRFSQKFVDRTANPKDIIHFFRHKEQKDKKDSITINFGKIDSKPLLEGTTLRVEDLVKEYFKTAEKNVQLSLLTERGMGEAVQEFVDKEEKDALEELVKFQLEKTQRFLKERHIDAEEEKIDEEVRKFRETRKTNTNEEDEEVREAIQRARTHRSQAPDVEMSDEDDDALLRKVSLSDDEDVRASMPARGRGRGRARGGRGQSTTTRGTSRRGRGSASADQPSSGRATKATGKNMSILDAFKPSSRQPTARNVAKKTYSEDIEDDDSDLEEVSFTPSSVIESRRTSSTSTSYSRKSTQPQSQATKAHFFDDDDDEEDFDPFKKSGPSRRGRR
binding [1]: no binding (tested: 10 μg GST-tagged protein)

Results are given in words; binding and its absence hold for the method and conditions named. In cells and extracts the contact can be indirect. For some assays here: Binding calls can cover weak binding; strength is not graded here.
